{
  "sequences": {"note": "Protein sequences, listed by entry. Tags and fused reporters are not part of them. Lines headed by an entry give the natural chain unless they say otherwise; changes in a name come on top. Residues count along the entry.", "UniProt P16473, residues 21-764": "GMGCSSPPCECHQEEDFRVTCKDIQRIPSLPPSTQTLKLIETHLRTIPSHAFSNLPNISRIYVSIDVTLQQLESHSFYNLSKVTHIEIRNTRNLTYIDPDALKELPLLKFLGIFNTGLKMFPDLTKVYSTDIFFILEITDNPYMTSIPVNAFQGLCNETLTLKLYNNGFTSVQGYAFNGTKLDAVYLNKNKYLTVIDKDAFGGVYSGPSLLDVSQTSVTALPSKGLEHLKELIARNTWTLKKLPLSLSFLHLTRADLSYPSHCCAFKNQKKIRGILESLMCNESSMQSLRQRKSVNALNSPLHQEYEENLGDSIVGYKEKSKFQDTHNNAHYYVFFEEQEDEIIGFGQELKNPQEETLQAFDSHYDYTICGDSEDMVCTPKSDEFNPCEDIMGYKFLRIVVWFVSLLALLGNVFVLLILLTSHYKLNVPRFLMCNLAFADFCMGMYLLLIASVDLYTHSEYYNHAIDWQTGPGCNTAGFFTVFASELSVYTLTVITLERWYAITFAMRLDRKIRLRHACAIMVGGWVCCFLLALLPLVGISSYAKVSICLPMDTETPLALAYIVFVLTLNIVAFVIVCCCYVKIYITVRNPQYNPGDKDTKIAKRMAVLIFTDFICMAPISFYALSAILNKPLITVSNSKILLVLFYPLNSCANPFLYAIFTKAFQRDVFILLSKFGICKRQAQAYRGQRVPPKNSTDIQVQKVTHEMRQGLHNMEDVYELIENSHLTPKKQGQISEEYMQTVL", "UniProt P25942, residues 21-277": "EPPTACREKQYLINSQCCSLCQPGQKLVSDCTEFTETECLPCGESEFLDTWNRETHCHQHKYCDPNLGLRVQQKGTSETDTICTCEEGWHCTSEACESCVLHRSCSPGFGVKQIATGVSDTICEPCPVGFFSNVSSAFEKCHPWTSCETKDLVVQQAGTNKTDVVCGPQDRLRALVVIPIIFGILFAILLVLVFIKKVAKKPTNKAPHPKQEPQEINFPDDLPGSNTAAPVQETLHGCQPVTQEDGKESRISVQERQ", "UniProt P08069": "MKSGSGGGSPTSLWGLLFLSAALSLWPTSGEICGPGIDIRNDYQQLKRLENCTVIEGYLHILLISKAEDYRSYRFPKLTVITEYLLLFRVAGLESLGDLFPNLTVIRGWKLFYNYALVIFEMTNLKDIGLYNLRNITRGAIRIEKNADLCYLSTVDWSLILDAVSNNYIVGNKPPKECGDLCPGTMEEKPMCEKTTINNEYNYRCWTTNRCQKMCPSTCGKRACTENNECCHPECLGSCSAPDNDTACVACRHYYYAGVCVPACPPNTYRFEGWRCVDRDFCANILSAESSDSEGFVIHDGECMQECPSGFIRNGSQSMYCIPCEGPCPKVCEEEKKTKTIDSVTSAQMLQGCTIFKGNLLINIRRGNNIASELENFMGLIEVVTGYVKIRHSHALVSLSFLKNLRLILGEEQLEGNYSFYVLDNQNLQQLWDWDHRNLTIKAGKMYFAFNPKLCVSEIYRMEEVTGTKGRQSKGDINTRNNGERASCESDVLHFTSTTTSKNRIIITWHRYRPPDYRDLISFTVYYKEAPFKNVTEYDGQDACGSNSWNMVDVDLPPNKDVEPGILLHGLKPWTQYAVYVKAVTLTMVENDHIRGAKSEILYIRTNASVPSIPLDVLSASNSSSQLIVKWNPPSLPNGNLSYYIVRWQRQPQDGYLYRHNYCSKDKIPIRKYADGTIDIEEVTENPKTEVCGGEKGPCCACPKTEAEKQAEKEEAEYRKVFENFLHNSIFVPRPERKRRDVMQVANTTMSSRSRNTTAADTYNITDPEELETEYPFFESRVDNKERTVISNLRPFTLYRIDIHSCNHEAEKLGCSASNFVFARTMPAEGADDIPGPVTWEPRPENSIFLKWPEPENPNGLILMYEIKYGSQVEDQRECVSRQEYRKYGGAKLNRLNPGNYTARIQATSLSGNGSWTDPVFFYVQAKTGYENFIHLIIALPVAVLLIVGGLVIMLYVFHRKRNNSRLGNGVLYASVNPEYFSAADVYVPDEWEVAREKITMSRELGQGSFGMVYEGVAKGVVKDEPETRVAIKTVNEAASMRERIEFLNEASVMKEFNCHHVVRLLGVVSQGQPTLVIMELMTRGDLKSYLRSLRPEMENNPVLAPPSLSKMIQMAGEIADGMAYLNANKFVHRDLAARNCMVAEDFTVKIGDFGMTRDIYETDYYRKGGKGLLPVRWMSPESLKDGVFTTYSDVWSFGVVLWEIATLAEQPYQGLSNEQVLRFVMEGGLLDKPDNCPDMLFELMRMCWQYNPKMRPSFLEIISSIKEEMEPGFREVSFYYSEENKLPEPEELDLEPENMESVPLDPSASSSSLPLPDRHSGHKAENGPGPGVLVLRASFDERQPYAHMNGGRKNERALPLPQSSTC"},
  "source": "paper PMC5025085",
  "key": {"[1]": {"target": "TSH receptor (human (endogenous in fibrocytes)) (UniProt P16473)", "experiment": "co-IP; RIPA extract of cultured fibrocytes (approx. 0.5 mg protein) incubated at 4 °C with protein A agarose beads coupled with anti-CD40 or anti-TSHR antibody; Western blot for TSHR and CD40"}, "[2]": {"target": "CD40 (human (endogenous in fibrocytes)) (UniProt P25942)", "experiment": "co-IP; RIPA extract of cultured fibrocytes (approx. 0.5 mg protein) incubated at 4 °C with protein A agarose beads coupled with anti-CD40 or anti-TSHR antibody; Western blot for TSHR and CD40"}, "[3]": {"target": "CD40 (human (endogenous in fibrocytes)) (UniProt P25942)", "experiment": "co-IP; pulldown assays with antibodies against CD40 and the α and β subunits of IGF-1R; told only in the discussion, no data shown, cells not given"}},
  "note": "No constants are given. Whether binding was seen depends on the method and setting. Binding seen in cells or lysates may run through a third protein. Some results given as binding are weak or reduced against the parent protein; the word gives no strength.",
  "data": [
    {"substance": "CD40 (from UniProt P25942 21-277) (receptor)", "values": [
      {"measurement": "binding", "setting": "[1]", "result": "binds"}
    ]},
    {"substance": "TSH receptor (from UniProt P16473 21-764)", "values": [
      {"measurement": "binding", "setting": "[2]", "result": "binds"}
    ]},
    {"substance": "insulin-like growth factor 1 receptor (from UniProt P08069 31-736; P08069 741-1367)", "values": [
      {"measurement": "binding", "setting": "[3]", "result": "no binding"}
    ]}
  ]
}
